For 49 compounds, AC50 results are on record in PubChem BioAssay AID1487 (National Center for Advancing Translational Sciences (NCATS), 2009).

Each structure is given as a SMILES string. Several values for one entry are separate records, joined by “and”; a condition that tells them apart may be missing. Equal values may be shown once. The list shows a part of the results. Further columns of the screen follow, without active or inactive calls. The list favours compounds with an active or inconclusive main result. Words in brackets tell the shape of the fitted curve; partial curves, single points and poor fits give uncertain potencies.

The nature of the assay: qHTS Assay for Modulators of Lamin A Splicing. As to conditions: HeLa LMNA splicing GFP/RFP minigene ratio, 48 h. An outline of the steps:
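S3 HeLa stable clones carrying a lamin A-EGFP splicing minigene plus DsRed2 were seeded at 600 cells/well in Opti-MEM with 2% FBS, pin-dosed and incubated 48 h at 37°C. Acumen cytometry (488 nm) gave the GFP/RFP total-intensity ratio.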

[1] abbreviates: measured here: RFP viability control channel.
The mark [2] stands for this setting: measured here: GFP splicing reporter channel.

Consider `C/C=C(/C)C(=O)O[C@H]1C(C)=C2C([C@@H]1OC(=O)CCCCCCC)[C@@](C)(OC(C)=O)C[C@@H](OC(=O)CCC)[C@@]1(O)[C@H]2OC(=O)[C@@]1(C)O` (stereo partly drawn), for which, under setting [1], the AC50 is 0.0501 µM [falling, full curve].

Consider `O=C1NC(=O)N(c2ccccc2)C(=O)/C1=C\C=C\c1ccccc1`, for which the AC50 under setting [2] was 0.891 µM [falling, partial curve, poor fit] and the AC50 under setting [1] was 5.01 µM [falling, partial curve, poor fit]. With `C[C@H]1CC[C@@H]2[C@@H](C)[C@H]3[C@H](C[C@H]4[C@@H]5CC=C6CC(O[C@@H]7O[C@H](CO)[C@H](O)[C@H](O[C@@H]8O[C@H](CO)[C@@H](O)[C@H](O)[C@H]8O)[C@H]7O[C@H]7O[C@@H](C)[C@H](O)[C@@H](O)[C@H]7O)CC[C@]6(C)[C@H]5CC[C@]34C)N2C1` (stereo partly drawn), the AC50 reads like this: under setting [2], 14.1 µM [falling, partial curve]; under setting [1], 15.8 µM [falling, partial curve].

Take `O=C1C=C2C=C[C@H]3C[C@]2(O1)[C@@H]1CCCCN13`: under setting [1], the AC50 is 25.1 µM [rising, single point]. `O=[N+]([O-])c1ccc(NCc2ccccc2)c2nonc12`: under setting [2], the AC50 is 10 µM [rising, partial curve]. `Cc1ccc(OCC(=O)N2CCN(Cc3ccc4c(c3)OCO4)CC2)cc1C`: the AC50 by setting is: under setting [2], 2.82 µM [falling, partial curve, poor fit]; under setting [1], 5.01 µM [falling, partial curve]. For `COP(=S)(OC)SCn1nnc2ccccc2c1=O`, the AC50 by setting is: under setting [2], 31.6 µM [falling, single point]; under setting [1], 35.5 µM [falling, single point]. Regarding `COc1ccc(OC)c(N2C(=O)NC(=O)/C(=C/c3ccc([N+](=O)[O-])s3)C2=O)c1`, under setting [1], the AC50 was 5.62 µM [rising, single point]. Consider `CC(C)c1c(CN(C)[C@@H](C)Cc2ccccc2)n(C)n(-c2ccccc2)c1=O`, for which the AC50 under setting [2] was 7.08 µM [falling, partial curve, poor fit] and the AC50 under setting [1] was 8.91 µM [falling, single point]. Turning to `CSc1ccccc1C(=O)C1CCCN(Cc2ccncc2)C1` (stereo not drawn), the AC50 under setting [1] was 0.141 µM [falling, full curve, poor fit]. As to `CC(C)N1CCN(Cc2cccc3c2OCO3)CC1CCO` (stereo not drawn), the AC50 under setting [2] was 1.12 µM [falling, full curve] and the AC50 under setting [1] is 0.447 µM [falling, full curve, poor fit]. In the case of `Cc1nnc(NC(=O)c2cccn(Cc3cccc([N+](=O)[O-])c3)c2=O)s1`, the AC50 under setting [2] was 0.562 µM [falling, full curve, poor fit] and the concentration at half-maximal activity (AC50) under setting [1] is 0.562 µM [falling, full curve].

As for `CCn1c(=O)cc(SCC(=O)N2CCC3(CC2)OCCO3)c2ccccc21`, the AC50 under setting [1] is 28.2 µM [rising, single point]. On the same count and under the same terms, the same measure for `Cc1ccc(Cn2nnnc2CN2CCC(n3nnc4cc(C)ccc43)CC2)cc1`: 14.1 µM [rising, single point]. Take `C[C@H]1C[C@@H](C)C(=O)[C@@H]([C@H](O)CC2CC(=O)NC(=O)C2)C1`: the AC50 runs as follows: under setting [2], 1 µM [falling, partial curve]; under setting [1], 1 µM [falling, partial curve]. For `Cc1c(C(=O)NCCC2=CCCCC2)oc2ccc(S(=O)(=O)N3CCC4(CC3)OCCO4)cc12`, the AC50 by setting is: under setting [2], 11.2 µM [rising, single point]; under setting [1], 12.6 µM [rising, partial curve]. With `COc1cc2c(C(=O)N3CCN(C)CC3)c(C)n(C)c2cc1Br`, under setting [1], the AC50 is 0.00447 µM [falling, full curve, poor fit]. On to `NC(N)=NC(=O)c1nc(Cl)c(N)nc1N`, for which the AC50 under setting [2] is 1.41 µM [falling, partial curve, poor fit] and 31.6 nM [falling, full curve] and 4.47 µM [rising, full curve].

Consider `S=C(S)N1CCCC1`, for which the concentration at half-maximal activity (AC50) reads like this: under setting [2], 1 µM [falling, full curve]; under setting [1], 0.631 µM [falling, full curve]. Consider `O=C(Nc1cccc(Cl)c1)c1cnc2sc(N3CCCC3)nn2c1=O`, for which the concentration at half-maximal activity (AC50) under setting [1] is 8.91 µM [rising, partial curve]. As for `O=C(O)c1ccccc1-c1c2cc(Br)c(=O)cc-2oc2[c]([Hg])c(O)c(Br)cc12`, the AC50 was 2.51 µM [falling, full curve] under setting [2] and 2.82 µM [falling, full curve] under setting [1]. `Cc1noc(C(=O)Nc2sc3c(c2C#N)CCC3)c1Cl`: the AC50 under setting [1] was 7.94 µM [rising, partial curve]. The same measure, in the same setting: the result for `Cc1cc(OC(=O)c2ccco2)c2c3c(c(=O)oc2c1)CCCC3` reads 3.98 µM [rising, full curve, poor fit]; that for `CN1C(=O)C(=Cc2ccccc2OCc2ccccc2Cl)C(=O)N(C)C1=O`, 6.31 µM [rising, partial curve]. For `CC[C@@H]1C(=O)OC[C@@H]1Cc1cncn1C`, the AC50 under setting [2] is 15.8 µM [rising, partial curve, poor fit] and 5.01 nM [falling, full curve, poor fit] and 35.5 µM [rising, single point]; the AC50 under setting [1] was 5.01 nM [falling, full curve, poor fit] and 35.5 µM [rising, single point]. Regarding `N[C@@H](Cn1oc(=O)[nH]c1=O)C(=O)O`, under setting [2], the AC50 was 3.16 µM [rising, single point]. As for `COc1cccc(C2CC3C(=O)C=CC2N3Cc2ccccc2)c1` (stereo not drawn), the AC50 reads like this: under setting [2], 0.0891 µM [rising, full curve, poor fit]; under setting [1], 0.0891 µM [rising, full curve, poor fit].

With `CNC1=CN(O)C(c2ccccc2)=c2cc(Cl)ccc2=N1`, the AC50 was 35.5 µM [falling, single point] under setting [2] and 15.8 µM [falling, single point] under setting [1]. With `Cc1ccc(-n2c(O)c(/C=N/c3ncc(Br)cc3Br)c(=O)[nH]c2=O)cc1`, the AC50 under setting [2] is 1.78 µM [falling, partial curve].

Regarding `COC(C)(C)CCCC(C)C/C=C/C(C)=C/C(=O)OC(C)C` (stereo not drawn), the concentration at half-maximal activity (AC50) was 10 µM [falling, single point] under setting [2] and 35.5 µM [falling, single point] under setting [1]. For `COc1ccc(NC(=O)c2ccc(COCC(F)(F)C(F)F)cc2)cc1`, the AC50 under setting [1] is 35.5 µM [rising, single point]. Same read-out and setting: the same measure for `O=C(Cc1ccc(Br)cc1)N1CCN(Cc2ccccc2)CC1`: 3.55 µM [rising, single point]. On the same count and under the same terms, the same measure for `Cn1c(=O)c2c(ncn2CC(=O)Nc2nc(-c3ccccc3Cl)cs2)n(C)c1=O`: 12.6 µM [rising, partial curve]; for `CCC12CN3CCN(CC(C3)/C1=N\O)C2`: 35.5 µM [falling, partial curve, poor fit]. As for `COc1cc(/C=C(/C)[N+](=O)[O-])ccc1OCc1ccccc1Cl`, the AC50 was 28.2 µM [falling, single point] under setting [2] and 3.98 µM [falling, full curve] under setting [1]. For the compound `CC(C)CCn1c(=O)c(C(=O)Nc2ccccc2S(N)(=O)=O)c(O)c2ccccc21`, the AC50 is, setting by setting: under setting [2], 10 µM [rising, partial curve]; under setting [1], 7.94 µM [rising, partial curve]. As for `COc1c2c(c(CC=C(C)C)c3oc(=O)c(-c4ccc(O)cc4)c(O)c13)OC(C)(C)C=C2`, the AC50 under setting [2] was 22.4 µM [rising, single point]. Turning to `CCCN(CCC)[C@@H]1CCc2ccc(O)cc2C1`, the AC50 was 5.62 µM [falling, partial curve, poor fit] under setting [2] and 6.31 µM [falling, partial curve, poor fit] under setting [1].

With `[O]=[Cd]`, the AC50 under setting [2] was 12.6 µM [rising, single point]. Consider `Clc1cnc(Oc2ccc(Oc3ncc(Cl)cc3Cl)cc2)c(Cl)c1`, for which the AC50 under setting [1] is 4.47 µM [falling, partial curve, poor fit].

`CNCCc1ccc(O)c(O)c1`: the AC50 is 1.26 µM [falling, full curve] under setting [2] and 12.6 µM [falling, partial curve, poor fit] under setting [1].

As to `COC1C(O)C(C)O[C@@H](OC2CC[C@@]3(C)C4CC[C@]5(C)C(C6=CC(=O)OC6)CC[C@@]5(O)C4CC[C@@H]3C2)C1O` (stereo partly drawn), the AC50 under setting [2] is 0.1 µM [falling, full curve] and the AC50 under setting [1] is 0.0708 µM [falling, full curve].

For `C=C1CC2C(CC[C@]3(C)C(=O)CCC23)[C@]2(C)C=CC(=O)C=C12` (stereo partly drawn), the AC50 is 0.00398 µM [falling, full curve, poor fit] under setting [2] and 14.1 µM [rising, single point] under setting [1]. Consider `CCOC(=O)C(=CNc1ccc(C(O)(C(=O)OCC)C(F)(F)F)cc1C)C(=O)OCC` (stereo not drawn), for which the half-maximal activity concentration (AC50) under setting [2] was 15.8 µM [rising, single point] and the AC50 under setting [1] was 14.1 µM [rising, single point]. As to `O=C(Cn1ncc2c3ccccc3n(Cc3cccc(Cl)c3)c2c1=O)N1CCC2(CC1)OCCO2`, the AC50 under setting [1] is 12.6 µM [rising, partial curve]. On to `O=c1cccc2n1CC1CC2CN(Cc2c(F)cccc2Cl)C1` (stereo not drawn), for which the AC50 under setting [1] is 6.31 µM [falling, single point]. For the compound `COc1ccc2c3c1OC1C[C@@H](O)C=C[C@@]31CCN(C)C2` (stereo partly drawn), the AC50 by setting is: under setting [2], 0.794 µM [falling, full curve]; under setting [1], 1.58 µM [falling, single point]. As for `O=C(COc1ccc(Cl)cc1Cl)N1CCN(C/C=C/c2ccccc2)CC1`, the AC50 was 20 µM [rising, partial curve] under setting [2] and 17.8 µM [rising, single point] under setting [1]. As to `CSc1nn(-c2ccc(C(=O)OCC(=O)NC(=O)NC(C)C)cc2)c(=S)s1`, the AC50 under setting [1] was 17.8 µM [rising, partial curve].
